From article doi:10.1101/379453
No constants are given. Whether binding was seen depends on the method and setting. In cells and extracts the contact can be indirect. Some results given as binding are weak or reduced against the parent protein; the word gives no strength.

Protein sequences, listed by entry. Tags and fused reporters are not part of them.
UniProt Q12778: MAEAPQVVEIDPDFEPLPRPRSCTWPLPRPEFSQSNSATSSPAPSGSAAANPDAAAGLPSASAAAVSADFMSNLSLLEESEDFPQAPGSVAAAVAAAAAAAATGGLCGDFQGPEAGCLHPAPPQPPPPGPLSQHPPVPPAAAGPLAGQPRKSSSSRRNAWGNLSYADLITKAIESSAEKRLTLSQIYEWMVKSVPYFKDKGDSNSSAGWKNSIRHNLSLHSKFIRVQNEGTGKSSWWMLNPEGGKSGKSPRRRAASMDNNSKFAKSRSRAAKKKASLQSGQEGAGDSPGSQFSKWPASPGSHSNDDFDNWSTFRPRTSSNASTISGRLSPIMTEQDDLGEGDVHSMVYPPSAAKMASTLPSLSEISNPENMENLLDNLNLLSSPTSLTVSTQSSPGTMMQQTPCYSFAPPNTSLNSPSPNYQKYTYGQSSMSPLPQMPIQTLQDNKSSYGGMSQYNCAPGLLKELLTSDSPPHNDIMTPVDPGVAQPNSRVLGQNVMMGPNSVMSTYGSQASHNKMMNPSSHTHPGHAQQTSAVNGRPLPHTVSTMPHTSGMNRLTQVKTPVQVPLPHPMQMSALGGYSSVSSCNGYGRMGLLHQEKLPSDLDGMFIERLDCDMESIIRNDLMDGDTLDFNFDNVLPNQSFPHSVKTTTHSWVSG
UniProt P35222: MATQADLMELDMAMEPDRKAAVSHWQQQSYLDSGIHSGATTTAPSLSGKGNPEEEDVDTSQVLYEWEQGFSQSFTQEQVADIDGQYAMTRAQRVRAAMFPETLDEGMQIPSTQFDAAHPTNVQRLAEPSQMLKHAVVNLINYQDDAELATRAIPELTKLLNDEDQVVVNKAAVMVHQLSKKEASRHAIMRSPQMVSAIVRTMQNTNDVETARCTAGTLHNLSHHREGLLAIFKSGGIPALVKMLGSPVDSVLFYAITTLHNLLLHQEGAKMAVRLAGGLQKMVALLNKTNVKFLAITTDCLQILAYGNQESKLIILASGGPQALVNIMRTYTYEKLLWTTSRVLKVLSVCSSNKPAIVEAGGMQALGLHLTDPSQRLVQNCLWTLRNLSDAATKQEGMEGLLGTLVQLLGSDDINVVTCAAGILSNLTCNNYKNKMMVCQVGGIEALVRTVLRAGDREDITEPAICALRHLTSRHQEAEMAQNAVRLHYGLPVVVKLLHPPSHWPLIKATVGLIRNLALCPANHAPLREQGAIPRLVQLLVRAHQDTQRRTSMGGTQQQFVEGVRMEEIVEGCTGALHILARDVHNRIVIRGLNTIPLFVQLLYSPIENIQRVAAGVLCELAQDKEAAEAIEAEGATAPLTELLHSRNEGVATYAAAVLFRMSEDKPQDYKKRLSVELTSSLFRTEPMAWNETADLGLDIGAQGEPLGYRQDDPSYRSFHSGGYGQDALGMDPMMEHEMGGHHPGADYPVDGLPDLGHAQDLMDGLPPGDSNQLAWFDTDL

Target: Foxo1 (human (endogenous in Tregs)) (UniProt Q12778)
Assay: proximity ligation

binding: binds
Substance: β-catenin (from UniProt P35222 1-781)
